This assay addresses T1, CBU_0937 tagged with C-terminal 3XFLAG (Coxiella burnetii) (UniProt Q83D09).
T1 sequence: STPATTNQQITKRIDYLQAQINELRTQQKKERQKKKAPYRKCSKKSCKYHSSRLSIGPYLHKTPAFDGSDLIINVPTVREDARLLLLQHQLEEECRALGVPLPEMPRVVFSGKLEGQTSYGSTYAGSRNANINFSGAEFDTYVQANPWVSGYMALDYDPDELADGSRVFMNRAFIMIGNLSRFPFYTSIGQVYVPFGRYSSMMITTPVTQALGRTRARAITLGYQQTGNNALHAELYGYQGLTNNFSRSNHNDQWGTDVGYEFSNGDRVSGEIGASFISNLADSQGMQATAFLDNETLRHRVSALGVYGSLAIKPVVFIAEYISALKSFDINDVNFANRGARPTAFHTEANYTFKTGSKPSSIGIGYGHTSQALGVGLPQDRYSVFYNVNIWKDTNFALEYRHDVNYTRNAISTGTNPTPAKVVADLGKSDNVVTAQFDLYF
Kind of assay: affinity purification with mass spectrometry.

No constants are given. Whether binding was seen depends on the method and setting. Binding seen in cells or lysates may run through a third protein. These calls come from enrichment with a bait or labelling near it, and not all partners need be listed. Where a sequence is shown, tags or fusion partners need not be part of it.

From publication PMC11661375 come the findings set out here.

B1: CYP1B1 (enzyme, UniProt Q16678 1-543)
chain: MGTSLSPNDPWPLNPLSIQQTTLLLLLSVLATVHVGQRLLRQRRRQLRSAPPGPFAWPLIGNAAAVGQAAHLSFARLARRYGDVFQIRLGSCPIVVLNGERAIHQALVQQGSAFADRPAFASFRVVSGGRSMAFGHYSEHWKVQRRAAHSMMRNFFTRQPRSRQVLEGHVLSEARELVALLVRGSADGAFLDPRPLTVVAVANVMSAVCFGCRYSHDDPEFRELLSHNEEFGRTVGAGSLVDVMPWLQYFPNPVRTVFREFEQLNRNFSNFILDKFLRHCESLRPGAAPRDMMDAFILSAEKKAAGDSHGGGARLDLENVPATITDIFGASQDTLSTALQWLLLLFTRYPDVQTRVQAELDQVVGRDRLPCMGDQPNLPYVLAFLYEAMRFSSFVPVTIPHATTANTSVLGYHIPKDTVVFVNQWSVNHDPLKWPNPENFDPARFLDKDGLINKDLTSRVMIFSVGKRRCIGEELSKMQLFLFISILAHQCDFRANPNEPAKMNFSYGLTIKPKSFKVNVTLRESMELLDSAVQNLQAKETCQ
For B1, the binding result is “binds”.
